The target in the test is T1, Ume6 tagged at the carboxy terminus with TurboID (TurboID-3xMyc) (S. cerevisiae) (UniProt P39001).
T1 sequence: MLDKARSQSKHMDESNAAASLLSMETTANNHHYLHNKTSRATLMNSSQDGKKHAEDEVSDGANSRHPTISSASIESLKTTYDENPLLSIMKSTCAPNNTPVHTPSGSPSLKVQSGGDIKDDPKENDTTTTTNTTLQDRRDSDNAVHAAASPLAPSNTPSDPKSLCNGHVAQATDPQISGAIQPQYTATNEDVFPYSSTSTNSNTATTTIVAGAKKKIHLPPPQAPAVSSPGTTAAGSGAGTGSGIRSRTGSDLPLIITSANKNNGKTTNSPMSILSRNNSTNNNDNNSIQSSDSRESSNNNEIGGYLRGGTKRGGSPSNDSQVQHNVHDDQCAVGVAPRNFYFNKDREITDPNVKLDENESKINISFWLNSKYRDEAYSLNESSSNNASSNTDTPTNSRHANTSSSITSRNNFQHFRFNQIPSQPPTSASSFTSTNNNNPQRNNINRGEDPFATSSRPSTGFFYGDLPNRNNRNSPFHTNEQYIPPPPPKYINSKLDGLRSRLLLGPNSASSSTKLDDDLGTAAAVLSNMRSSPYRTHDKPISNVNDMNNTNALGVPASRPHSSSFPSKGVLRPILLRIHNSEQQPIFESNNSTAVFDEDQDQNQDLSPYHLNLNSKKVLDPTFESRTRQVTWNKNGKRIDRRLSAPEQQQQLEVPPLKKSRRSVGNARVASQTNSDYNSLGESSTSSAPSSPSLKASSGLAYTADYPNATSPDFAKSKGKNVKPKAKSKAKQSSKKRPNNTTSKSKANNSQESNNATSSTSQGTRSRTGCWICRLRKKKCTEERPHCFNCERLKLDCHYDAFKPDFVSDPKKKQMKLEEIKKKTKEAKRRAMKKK
Kind of test: proximity labelling.

These are yes or no findings as the source states them, for the method shown. In cells and extracts the contact can be indirect. Here binding means that the protein was enriched with, or labelled near, the bait; the list need not be complete. Sequences can lack the tags named with a protein.

B1: Spt5 (protein, UniProt P27692 1-1063)
chain: MSDNSDTNVSMQDHDQQFADPVVVPQSTDTKDENTSDKDTVDSGNVTTTESTERAESTSNIPPLDGEEKEAKSEPQQPEDNAETAATEQVSSSNGPATDDAQATLNTDSSEANEIVKKEEGSDERKRPREEDTKNSDGDTKDEGDNKDEDDDEDDDDDDDDEDDDDEAPTKRRRQERNRFLDIEAEVSDDEDEDEDEEDSELVREGFITHGDDEDDEASAPGARRDDRLHRQLDQDLNKTSEEDAQRLAKELRERYGRSSSKQYRAAAQDGYVPQRFLLPSVDTATIWGVRCRPGKEKELIRKLLKKKFNLDRAMGKKKLKILSIFQRDNYTGRIYIEAPKQSVIEKFCNGVPDIYISQKLLIPVQELPLLLKPNKSDDVALEEGSYVRIKRGIYKGDLAMVDQISENNLEVMLKIVPRLDYGKFDEIDPTTQQRKSRRPTFAHRAPPQLFNPTMALRLDQANLYKRDDRHFTYKNEDYIDGYLYKSFRIQHVETKNIQPTVEELARFGSKEGAVDLTSVSQSIKKAQAAKVTFQPGDRIEVLNGEQRGSKGIVTRTTKDIATIKLNGFTTPLEFPISTLRKIFEPGDHVTVINGEHQGDAGLVLMVEQGQVTFMSTQTSREVTITANNLSKSIDTTATSSEYALHDIVELSAKNVACIIQAGHDIFKVIDETGKVSTITKGSILSKINTARARVSSVDANGNEIKIGDTIVEKVGSRREGQVLYIQTQQIFVVSKKIVENAGVFVVNPSNVEAVASKDNMLSNKMDLSKMNPEIISKMGPPSSKTFQQPIQSRGGREVALGKTVRIRSAGYKGQLGIVKDVNGDKATVELHSKNKHITIDKHKLTYYNREGGEGITYDELVNRRGRVPQARMGPSYVSAPRNMATGGIAAGAAATSSGLSGGMTPGWSSFDGGKTPAVNAHGGSGGGGVSSWGGASTWGGQGNGGASAWGGAGGGASAWGGQGTGATSTWGGASAWGNKSSWGGASTWASGGESNGAMSTWGGTGDRSAYGGASTWGGNNNNKSTRDGGASAWGNQDDGNRSAWNNQGNKSNYGGNSTWGGH
As to B1, the binding entry is listed as “binds”.
